Values quoted from earlier work, collected in patent US20050065094A1, “Use of telmisartan for the prevention and treatment of vascular headache” (Boehringer Ingelheim International GmbH, priority 2003, published 2005).
At least one structure is not confirmed: it was looked up by name or label, or the drawing left a doubt.

Tested on: patients suffering from migraine
Conditions: placebo-controlled crossover

CCOc1nc2cccc(C(=O)O)c2n1Cc1ccc(-c2ccccc2-c2nnn[nH]2)cc1 [candesartan]
migraine prophylaxis: effective migraine prophylaxis
